Results reported in patent US7119077.

Key:
[1] = molecular target: T1, rat peroxisome proliferator-activated receptor (rat) (UniProt P37230); assay: gel mobility shift, AOX-PPARE probe, in vitro translated proteins
T1 sequence (looked up): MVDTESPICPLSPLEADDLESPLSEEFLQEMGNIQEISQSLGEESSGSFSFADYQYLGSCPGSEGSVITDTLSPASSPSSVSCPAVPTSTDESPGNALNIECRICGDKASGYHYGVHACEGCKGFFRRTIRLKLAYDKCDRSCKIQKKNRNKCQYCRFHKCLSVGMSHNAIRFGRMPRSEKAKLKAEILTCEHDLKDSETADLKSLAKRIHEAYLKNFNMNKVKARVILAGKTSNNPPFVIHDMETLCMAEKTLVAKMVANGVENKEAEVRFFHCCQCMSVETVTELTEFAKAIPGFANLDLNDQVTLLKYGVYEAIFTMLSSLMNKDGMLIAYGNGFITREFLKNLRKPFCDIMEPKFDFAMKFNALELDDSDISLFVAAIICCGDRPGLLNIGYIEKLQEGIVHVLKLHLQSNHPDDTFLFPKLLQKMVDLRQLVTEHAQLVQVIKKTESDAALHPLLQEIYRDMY

[2] = molecular target: T2, Drosophila ecdysone receptor (Drosophila) (UniProt P34021); assay: gel mobility shift, hsp27-EcRE probe, Drosophila embryo extract, with usp antibody supershift
T2 sequence (looked up): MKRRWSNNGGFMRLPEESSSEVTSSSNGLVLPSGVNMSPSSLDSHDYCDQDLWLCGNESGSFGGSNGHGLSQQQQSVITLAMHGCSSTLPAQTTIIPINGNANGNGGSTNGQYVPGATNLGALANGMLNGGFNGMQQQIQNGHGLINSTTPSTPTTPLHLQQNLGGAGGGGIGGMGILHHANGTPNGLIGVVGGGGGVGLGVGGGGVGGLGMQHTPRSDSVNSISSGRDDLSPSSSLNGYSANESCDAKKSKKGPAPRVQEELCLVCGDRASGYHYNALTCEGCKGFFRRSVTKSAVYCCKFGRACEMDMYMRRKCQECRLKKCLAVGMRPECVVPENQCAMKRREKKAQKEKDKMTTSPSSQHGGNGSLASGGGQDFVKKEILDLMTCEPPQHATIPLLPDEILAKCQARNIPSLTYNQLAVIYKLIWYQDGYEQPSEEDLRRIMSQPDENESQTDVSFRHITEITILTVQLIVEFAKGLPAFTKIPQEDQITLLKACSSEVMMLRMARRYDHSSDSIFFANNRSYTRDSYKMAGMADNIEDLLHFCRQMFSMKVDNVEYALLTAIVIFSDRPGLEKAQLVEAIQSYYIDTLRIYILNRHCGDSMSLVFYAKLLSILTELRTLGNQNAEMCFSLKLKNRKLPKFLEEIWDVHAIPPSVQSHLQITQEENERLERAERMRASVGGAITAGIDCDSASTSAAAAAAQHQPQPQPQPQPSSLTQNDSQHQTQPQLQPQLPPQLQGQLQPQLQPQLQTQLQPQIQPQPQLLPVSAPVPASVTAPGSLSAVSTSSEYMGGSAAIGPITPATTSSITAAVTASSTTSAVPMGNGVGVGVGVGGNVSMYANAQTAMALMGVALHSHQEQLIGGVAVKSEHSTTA

[3] = molecular target: T3, human thyroid hormone receptor beta (human) (UniProt P10828); assay: gel mobility shift, MLV-TRE probe, in vitro translated proteins
T3 sequence (looked up): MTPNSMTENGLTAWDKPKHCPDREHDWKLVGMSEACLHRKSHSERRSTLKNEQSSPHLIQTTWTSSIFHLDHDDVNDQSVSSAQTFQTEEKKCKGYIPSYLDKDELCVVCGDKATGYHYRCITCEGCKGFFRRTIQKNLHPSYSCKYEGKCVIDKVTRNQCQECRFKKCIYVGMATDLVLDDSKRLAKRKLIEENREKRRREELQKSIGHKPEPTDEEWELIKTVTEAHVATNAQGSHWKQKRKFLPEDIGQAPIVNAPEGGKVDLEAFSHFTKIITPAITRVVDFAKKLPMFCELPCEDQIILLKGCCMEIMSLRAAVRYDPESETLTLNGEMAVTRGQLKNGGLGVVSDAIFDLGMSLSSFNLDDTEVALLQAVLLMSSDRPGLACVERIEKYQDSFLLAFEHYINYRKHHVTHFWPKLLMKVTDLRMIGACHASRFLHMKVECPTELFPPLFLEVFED

[4] = molecular target: T4, human vitamin D receptor (human) (UniProt P11473); assay: gel mobility shift, SSP1-VDRE probe, in vitro translated proteins
T4 sequence (looked up): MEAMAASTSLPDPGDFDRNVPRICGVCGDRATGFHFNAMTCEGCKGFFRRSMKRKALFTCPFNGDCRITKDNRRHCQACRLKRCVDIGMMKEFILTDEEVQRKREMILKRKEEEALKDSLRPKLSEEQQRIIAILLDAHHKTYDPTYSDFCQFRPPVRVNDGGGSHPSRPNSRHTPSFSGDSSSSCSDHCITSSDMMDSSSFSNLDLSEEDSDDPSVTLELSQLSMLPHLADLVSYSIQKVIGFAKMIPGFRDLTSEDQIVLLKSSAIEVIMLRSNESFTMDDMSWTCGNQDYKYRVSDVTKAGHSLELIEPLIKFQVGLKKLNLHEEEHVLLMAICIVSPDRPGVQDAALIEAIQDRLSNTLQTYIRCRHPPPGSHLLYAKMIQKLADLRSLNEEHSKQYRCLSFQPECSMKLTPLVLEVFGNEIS

[5] = molecular target: T2, Drosophila ecdysone receptor (Drosophila); assay: gel mobility shift, hsp27-EcRE probe, S2 extract, with usp antibody supershift
[6] = molecular target: T2, Drosophila ecdysone receptor (Drosophila); assay: gel mobility shift, hsp27-EcRE probe, in vitro translated EcR and usp

Measured: binding

Drosophila ultraspiracle receptor
binds: all assays above

These are yes or no findings as the source states them, for the method shown. Binding calls can cover weak binding; strength is not graded here.
